Measurements published in the supplement of paper PMC12889115.
This is one part of the list. These are raw signals, not scaled to a control.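 Primary screen: polymyxin B was added at a level permeabilizing Salmonella outer membranes while sparing inner membranes. DMSO wells, both with and without polymyxin B, established maximum growth. Plate-to-plate variation meant each plate was ranked on its own, and the lowest-OD600 compounds were selected as hits.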

Tested on: Salmonella enterica serovar Typhimurium SL1344
Assay: bacterial growth OD600 after 18 h with compound and polymyxin B; higher = more bacterial growth (less inhibition)
Settings: 50 µM, Mueller-Hinton broth

Row | Structure (SMILES) | bacterial growth OD600 (polymyxin B 1 µg/mL) | bacterial growth OD600 (polymyxin B 0.75 µg/mL)
1 | COc1cccc(OCc2nc(C(=O)N(C)CC3Cc4ccccc4O3)co2)c1 (stereo unspecified) | 0.777 | –
2 | COc1ccc(N2C(=O)CN(C(=O)CSc3ccccn3)CC23CCCC3)cc1 | – | 0.783
3 | COc1cccc(NC(=O)CCC2CCN(S(=O)(=O)c3cccnc3)CC2)c1 | 0.936 | –
4 | NC(=O)c1ccc(NCc2cccnc2Oc2cccc(C(F)(F)F)c2)nc1 | – | 0.442
5 | COCCN(Cc1ccc(OC)c(O)c1)CC1CCCN(C2Cc3ccccc3C2)C1 (stereo unspecified) | 0.85 | –
6 | O=C(NC1CCCN(CCc2ccccc2)C1)C1=CCCC1 (stereo unspecified) | 0.859 | –
7 | O=C(NC1CCOC1)c1csc2nc(-c3ccc(C(F)(F)F)cc3)cn12 (stereo unspecified) | 1.29 | –
8 | CN(Cc1nc2ccccc2n1C)C1CCCN(CCc2ccccc2)C1 (stereo unspecified) | 0.895 | –
9 | COc1ccccc1N1CCN(C2CCCN(C(=O)c3cc4ccccc4n3C)C2)CC1 (stereo unspecified) | 0.775 | –
10 | COc1cc(CNCC(C)C)ccc1OCC(O)CN1CCOCC1 (stereo unspecified) | 0.875 | –
11 | O=C(CC(c1cccc(O)c1)c1ccccc1Cl)N1CCSCC1 (stereo unspecified) | 0.014 | –
12 | COc1cc(CN2CCCC(Nc3ccc(F)cc3)C2)ccc1F (stereo unspecified) | 0.901 | –
13 | C=CC[C@H]1CC(C)=C[C@H](CC=C)N1C(=O)c1ccc(-n2cc(NC(=O)c3cccnc3)cn2)cc1 | – | 0.008
14 | COc1cccc(C(C)N(C)Cc2nc(-c3cccs3)no2)c1 (stereo unspecified) | 0.787 | –
15 | O=C(CCOc1ccccc1)NCc1cccnc1N1CCCC(O)C1 (stereo unspecified) | – | 0.756
16 | Cc1noc(C)c1CCCNC(=O)c1ccc(N2CCN3CCCC3C2)nc1 (stereo unspecified) | 1.08 | –
17 | Cc1cc(C)n(CCC(=O)NC2CC(=O)N(Cc3ccc(F)cc3)C2)n1 (stereo unspecified) | 0.898 | –
18 | COc1ccc(NC2CCCN(C(=O)c3ccc(C(F)(F)F)cc3)C2)cc1 (stereo unspecified) | 1 | –
19 | O=C(C1CCOCC1)N1CCCC(CNC(=O)C2(c3ccc(Cl)cc3)CC2)C1 (stereo unspecified) | 0.98 | –
20 | COC(=O)C1CCCCN1C(=O)c1cc(COc2ccc(C(C)=O)cc2)on1 (stereo unspecified) | 0.873 | –
21 | O=C(C1=CCCC1)N1CCCC(N2CCN(c3ccc(F)cc3)CC2)C1 (stereo unspecified) | 0.861 | –

Record cards (already shown).
Cc1cc(C)n(CCC(=O)NC2CC(=O)N(Cc3ccc(F)cc3)C2)n1 (stereo unspecified) is listed with bacterial growth OD600 (polymyxin B 1 µg/mL): 0.898
O=C(NC1CCOC1)c1csc2nc(-c3ccc(C(F)(F)F)cc3)cn12 (stereo unspecified) is listed with bacterial growth OD600 (polymyxin B 1 µg/mL): 1.29
